Laboratory results as given in US6890727B2, “Diagnostic assay for Alzheimer's disease: assessment of Aβ abnormalities” (The General Hospital Corporation, priority 1994, dated 2005).

Test: Zinc-induced tinctorial amyloid formation (Congo Red, polarized light)
Type: physicochemical
Conditions: incubation with Zn^2+
Description: FIGS. 8a and 8b are photographs showing zinc-induced tinctorial amyloid formation. […] The particle diameter is 40μ. […] The experiment was repeated with EDTA (50 μM) substituted for Zn^2+ and yielded no visible material.
The particle diameter is 40μ. […] The experiment was repeated with EDTA (50 μM) substituted for Zn^2+ and yielded no visible material.

| Substance | birefringence of Congo Red stained precipitate under polarized light |
| --- | --- |
| Aβ1-40: synthetic peptide representing secreted human Aβ1-40, 4.3 kDa, main component of Alzheimer cerebral amyloid | green birefringence |
| rat Aβ1-40: rat/mouse species of Aβ1-40; Arg→Gly, Tyr→Phe, His→Arg at positions 5, 10 and 13 (DAEFGHDSGFEVRHQKLVFFAEDVGSNKGAIIGLMVGGVV; Amyloid-beta protein 40; UniProt P08592 672-711, looked up) | minimal birefringence |
